The supplement of paper PMC10849652
The list shows a part of the results.

Protein sequences, listed by entry. Tags and fused reporters are not part of them. Lines headed by an entry give the natural chain unless they say otherwise; changes in a name come on top.
UniProt Q9UBP0: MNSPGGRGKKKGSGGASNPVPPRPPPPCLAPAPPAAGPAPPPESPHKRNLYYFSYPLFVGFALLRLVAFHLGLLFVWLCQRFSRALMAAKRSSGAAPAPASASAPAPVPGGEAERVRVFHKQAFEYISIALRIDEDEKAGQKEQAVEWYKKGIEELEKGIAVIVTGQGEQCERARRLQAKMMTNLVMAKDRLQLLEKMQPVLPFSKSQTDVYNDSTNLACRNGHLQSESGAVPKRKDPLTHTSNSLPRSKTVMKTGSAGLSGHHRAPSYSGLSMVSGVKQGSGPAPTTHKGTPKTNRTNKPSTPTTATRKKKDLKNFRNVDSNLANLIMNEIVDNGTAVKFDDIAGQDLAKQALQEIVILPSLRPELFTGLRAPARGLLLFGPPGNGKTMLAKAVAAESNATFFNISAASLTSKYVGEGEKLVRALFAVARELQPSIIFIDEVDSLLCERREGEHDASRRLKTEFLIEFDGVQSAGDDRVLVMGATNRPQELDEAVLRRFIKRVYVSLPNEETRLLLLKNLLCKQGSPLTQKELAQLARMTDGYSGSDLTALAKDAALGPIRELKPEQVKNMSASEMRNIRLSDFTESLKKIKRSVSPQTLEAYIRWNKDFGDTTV
UniProt Q8WVM7: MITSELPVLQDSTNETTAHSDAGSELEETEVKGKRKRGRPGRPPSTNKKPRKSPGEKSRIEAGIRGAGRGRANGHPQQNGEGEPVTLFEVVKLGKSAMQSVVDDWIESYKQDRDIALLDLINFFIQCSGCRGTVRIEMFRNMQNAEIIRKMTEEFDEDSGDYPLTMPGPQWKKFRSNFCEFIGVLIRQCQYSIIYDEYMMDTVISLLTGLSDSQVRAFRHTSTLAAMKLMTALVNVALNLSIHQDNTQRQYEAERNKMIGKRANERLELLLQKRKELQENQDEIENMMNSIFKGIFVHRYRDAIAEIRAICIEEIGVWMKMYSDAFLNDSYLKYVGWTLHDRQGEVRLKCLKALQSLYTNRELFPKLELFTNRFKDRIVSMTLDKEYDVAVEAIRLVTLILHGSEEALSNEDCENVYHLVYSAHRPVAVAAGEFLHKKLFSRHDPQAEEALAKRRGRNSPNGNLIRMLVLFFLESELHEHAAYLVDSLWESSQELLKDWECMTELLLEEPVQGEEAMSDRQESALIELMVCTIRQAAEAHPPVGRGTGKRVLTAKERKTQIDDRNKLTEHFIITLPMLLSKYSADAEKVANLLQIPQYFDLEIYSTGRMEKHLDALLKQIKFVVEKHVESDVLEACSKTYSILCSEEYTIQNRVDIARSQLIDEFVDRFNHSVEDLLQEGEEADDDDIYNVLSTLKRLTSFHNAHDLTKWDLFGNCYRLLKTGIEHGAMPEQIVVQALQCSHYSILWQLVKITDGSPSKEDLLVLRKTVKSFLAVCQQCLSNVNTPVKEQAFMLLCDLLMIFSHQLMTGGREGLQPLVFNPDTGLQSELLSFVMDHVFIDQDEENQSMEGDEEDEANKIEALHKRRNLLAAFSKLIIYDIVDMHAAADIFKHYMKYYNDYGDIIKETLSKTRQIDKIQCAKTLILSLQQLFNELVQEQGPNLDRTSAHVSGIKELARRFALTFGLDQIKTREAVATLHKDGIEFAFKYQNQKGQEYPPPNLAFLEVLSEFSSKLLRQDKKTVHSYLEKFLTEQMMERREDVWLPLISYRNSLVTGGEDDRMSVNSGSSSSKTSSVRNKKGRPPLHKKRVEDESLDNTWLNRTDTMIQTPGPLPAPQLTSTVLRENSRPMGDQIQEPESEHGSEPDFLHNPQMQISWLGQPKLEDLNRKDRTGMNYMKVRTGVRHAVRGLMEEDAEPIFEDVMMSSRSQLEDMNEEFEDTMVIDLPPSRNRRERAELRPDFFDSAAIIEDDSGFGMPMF
UniProt Q9Y6E0: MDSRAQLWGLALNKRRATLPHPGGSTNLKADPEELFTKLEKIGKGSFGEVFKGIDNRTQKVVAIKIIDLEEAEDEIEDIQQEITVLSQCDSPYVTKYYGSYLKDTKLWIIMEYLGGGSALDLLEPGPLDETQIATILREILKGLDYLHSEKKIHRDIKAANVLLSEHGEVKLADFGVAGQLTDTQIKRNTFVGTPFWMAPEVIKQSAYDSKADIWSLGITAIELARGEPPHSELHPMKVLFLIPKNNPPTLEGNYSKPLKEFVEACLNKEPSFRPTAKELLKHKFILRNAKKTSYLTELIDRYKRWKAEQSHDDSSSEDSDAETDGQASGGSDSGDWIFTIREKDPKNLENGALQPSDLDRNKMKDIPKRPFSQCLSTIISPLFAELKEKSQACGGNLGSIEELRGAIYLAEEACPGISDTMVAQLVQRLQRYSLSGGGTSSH
UniProt P40763, whole entry, looked up: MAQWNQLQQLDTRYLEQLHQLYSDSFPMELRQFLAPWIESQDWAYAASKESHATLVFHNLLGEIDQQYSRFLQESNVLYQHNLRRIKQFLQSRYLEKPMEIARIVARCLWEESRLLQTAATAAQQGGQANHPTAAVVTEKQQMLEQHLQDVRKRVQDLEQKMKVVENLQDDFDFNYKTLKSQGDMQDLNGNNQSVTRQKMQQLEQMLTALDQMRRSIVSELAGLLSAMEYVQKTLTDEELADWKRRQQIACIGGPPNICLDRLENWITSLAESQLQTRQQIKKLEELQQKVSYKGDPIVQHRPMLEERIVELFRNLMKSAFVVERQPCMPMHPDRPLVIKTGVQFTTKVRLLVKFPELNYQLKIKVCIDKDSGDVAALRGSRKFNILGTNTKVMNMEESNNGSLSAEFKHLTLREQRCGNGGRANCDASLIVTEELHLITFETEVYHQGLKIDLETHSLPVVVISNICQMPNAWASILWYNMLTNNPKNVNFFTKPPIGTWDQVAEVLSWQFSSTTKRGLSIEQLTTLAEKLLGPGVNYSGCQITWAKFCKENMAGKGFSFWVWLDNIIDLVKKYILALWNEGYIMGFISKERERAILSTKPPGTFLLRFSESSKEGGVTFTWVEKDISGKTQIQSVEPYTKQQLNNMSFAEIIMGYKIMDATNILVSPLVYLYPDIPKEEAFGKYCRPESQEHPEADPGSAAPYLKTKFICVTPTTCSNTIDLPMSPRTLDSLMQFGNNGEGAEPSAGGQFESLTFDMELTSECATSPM
UniProt P42229: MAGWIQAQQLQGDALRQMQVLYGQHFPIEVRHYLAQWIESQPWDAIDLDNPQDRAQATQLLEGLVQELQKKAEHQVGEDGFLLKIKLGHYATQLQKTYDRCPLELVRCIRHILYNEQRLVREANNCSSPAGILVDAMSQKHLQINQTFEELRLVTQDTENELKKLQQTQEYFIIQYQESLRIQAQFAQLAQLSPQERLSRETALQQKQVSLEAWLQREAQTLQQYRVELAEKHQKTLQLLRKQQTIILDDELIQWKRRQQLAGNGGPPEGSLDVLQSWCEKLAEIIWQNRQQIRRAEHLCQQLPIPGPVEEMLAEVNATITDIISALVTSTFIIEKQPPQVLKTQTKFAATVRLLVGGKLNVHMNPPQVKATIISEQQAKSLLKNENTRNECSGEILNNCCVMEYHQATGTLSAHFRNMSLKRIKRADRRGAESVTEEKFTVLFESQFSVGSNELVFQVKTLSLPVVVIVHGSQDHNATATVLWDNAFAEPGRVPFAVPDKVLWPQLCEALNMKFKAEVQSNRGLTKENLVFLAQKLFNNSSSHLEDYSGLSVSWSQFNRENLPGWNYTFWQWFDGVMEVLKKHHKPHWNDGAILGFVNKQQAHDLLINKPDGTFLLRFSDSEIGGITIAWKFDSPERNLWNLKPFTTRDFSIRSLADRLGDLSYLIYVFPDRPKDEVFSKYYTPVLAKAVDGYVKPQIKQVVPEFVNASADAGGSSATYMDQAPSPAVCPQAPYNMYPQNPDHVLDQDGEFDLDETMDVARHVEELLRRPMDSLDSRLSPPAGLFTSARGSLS
UniProt Q08170: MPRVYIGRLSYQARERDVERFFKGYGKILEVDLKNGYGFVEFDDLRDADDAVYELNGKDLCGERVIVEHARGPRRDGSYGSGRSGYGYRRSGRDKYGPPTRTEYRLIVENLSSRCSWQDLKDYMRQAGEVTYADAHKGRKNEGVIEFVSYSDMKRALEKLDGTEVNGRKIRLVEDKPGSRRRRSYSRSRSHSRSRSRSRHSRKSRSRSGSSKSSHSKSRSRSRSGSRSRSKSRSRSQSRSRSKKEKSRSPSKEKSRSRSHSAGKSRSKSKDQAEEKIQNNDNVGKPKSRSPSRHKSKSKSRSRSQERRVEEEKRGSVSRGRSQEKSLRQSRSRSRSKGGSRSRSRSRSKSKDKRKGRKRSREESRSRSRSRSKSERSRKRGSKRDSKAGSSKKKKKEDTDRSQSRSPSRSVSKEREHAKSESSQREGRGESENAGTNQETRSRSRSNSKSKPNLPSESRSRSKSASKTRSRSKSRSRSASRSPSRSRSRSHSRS
UniProt O76094: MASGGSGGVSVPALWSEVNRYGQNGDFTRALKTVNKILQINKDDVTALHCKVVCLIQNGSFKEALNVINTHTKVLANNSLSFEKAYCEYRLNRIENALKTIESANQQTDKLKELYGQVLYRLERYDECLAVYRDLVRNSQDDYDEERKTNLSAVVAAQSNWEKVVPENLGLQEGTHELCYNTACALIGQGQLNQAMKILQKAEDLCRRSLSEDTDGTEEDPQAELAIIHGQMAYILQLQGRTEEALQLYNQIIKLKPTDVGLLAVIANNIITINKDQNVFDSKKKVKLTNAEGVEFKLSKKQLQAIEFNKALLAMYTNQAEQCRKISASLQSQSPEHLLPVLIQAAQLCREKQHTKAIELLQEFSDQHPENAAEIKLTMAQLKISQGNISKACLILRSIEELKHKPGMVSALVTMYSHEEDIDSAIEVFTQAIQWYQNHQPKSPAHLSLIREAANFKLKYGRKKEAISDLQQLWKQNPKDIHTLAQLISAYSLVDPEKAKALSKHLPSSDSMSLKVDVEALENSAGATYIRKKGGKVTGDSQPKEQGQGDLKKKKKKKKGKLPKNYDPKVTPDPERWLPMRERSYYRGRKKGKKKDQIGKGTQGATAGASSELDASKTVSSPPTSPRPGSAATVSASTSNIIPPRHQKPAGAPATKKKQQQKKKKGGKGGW
UniProt Q16629: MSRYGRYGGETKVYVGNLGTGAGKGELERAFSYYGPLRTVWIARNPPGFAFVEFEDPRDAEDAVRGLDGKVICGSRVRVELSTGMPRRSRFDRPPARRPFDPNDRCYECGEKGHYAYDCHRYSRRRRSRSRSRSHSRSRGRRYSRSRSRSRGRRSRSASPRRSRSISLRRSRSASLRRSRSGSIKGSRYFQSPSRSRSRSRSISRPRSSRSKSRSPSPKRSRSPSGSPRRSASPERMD
UniProt Q9BVQ7: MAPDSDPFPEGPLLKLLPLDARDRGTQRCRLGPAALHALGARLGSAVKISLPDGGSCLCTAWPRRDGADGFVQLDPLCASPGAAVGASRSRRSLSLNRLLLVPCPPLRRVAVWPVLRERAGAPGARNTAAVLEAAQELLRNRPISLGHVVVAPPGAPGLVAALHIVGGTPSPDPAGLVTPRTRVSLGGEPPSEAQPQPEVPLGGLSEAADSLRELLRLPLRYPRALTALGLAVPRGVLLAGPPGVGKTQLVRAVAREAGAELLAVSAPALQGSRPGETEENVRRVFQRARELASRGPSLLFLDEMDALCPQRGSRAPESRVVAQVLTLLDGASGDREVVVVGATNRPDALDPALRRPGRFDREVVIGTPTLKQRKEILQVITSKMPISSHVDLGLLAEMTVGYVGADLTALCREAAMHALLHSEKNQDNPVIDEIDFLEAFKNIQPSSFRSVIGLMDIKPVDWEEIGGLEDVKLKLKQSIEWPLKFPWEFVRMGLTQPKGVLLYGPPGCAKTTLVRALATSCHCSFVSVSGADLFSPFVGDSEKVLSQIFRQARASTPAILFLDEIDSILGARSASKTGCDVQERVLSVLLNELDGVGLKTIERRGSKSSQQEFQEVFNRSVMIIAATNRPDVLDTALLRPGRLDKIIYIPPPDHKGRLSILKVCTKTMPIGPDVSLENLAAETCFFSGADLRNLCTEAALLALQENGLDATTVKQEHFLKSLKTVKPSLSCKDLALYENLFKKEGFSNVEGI
UniProt Q8WXA9: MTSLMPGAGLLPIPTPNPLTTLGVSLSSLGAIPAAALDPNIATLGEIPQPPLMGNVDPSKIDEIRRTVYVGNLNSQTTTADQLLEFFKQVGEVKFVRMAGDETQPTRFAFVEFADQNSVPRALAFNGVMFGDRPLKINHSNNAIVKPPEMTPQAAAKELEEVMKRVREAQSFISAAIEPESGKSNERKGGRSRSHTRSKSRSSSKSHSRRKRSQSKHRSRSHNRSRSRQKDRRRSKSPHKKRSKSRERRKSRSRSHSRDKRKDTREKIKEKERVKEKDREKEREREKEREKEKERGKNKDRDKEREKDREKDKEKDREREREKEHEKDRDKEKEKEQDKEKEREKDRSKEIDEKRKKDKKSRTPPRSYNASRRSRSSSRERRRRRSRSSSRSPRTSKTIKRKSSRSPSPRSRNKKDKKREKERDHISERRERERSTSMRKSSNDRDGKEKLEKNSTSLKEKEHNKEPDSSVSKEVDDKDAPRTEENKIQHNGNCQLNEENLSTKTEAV

compound: Cc1ncc(-c2ccnc(Nc3ccc(S(C)(=O)=O)cc3)n2)n1C(C)C; assay: log2 fold change, soluble protein after heating vs DMSO (PISA); higher = thermal stabilisation; K562 cells, 10 uM, 30 min; active = over 0.2 and 3.5 SD of the protein, either way, in both replicates (recomputed)
Outline: (§1)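 Values are thermal stability changes relative to control samples and are taken from duplicates. They are stated as log2 fold changes. Before quantification by TMTpro 16plex LC-MS/MS with equalised channel sums, K562 cells at 2×10^6 cells/mL were treated with 10 μM compound for 30 min, heated in aliquots for 3 min across 48°C-58°C, pooled, extracted in PBS with 0.5% NP-40 at 4°C, and centrifuged at 21,000xg for 90 min to give the soluble supernatant.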

log2 fold change, inactive:
SPAST (UniProt Q9UBP0) 0.026
SPHK1 isoform 2 (UniProt Q9NYA1) 0.07
SRA1 (UniProt Q9HD15) -0.004
STIM1 (UniProt Q13586) -0.025
SPTBN1 (UniProt Q01082) 0.054
SRSF3 (UniProt P84103) 0.082
SPECC1 (UniProt Q5M775) 0.063
STAG1 (UniProt Q8WVM7) -0.085
SPPL2B (UniProt Q8TCT7) 0.009
SRP54 (UniProt P61011) 0.053
ST3GAL2 (UniProt Q16842) 0.081
SRSF1 (UniProt Q07955) 0.084
STAT1 (UniProt P42224) -0.007
STAT5B (UniProt P51692) 0.162
ST6GALNAC1 (UniProt Q9NSC7) -0.019
STEAP3 isoform 2 (UniProt Q658P3) 0.03
SPRYD4 (UniProt Q8WW59) -0.018
SRGAP2 (UniProt O75044) -0.015
SRPK2 isoform 2 (UniProt P78362) 0.003
SPART (UniProt Q8N0X7) 0.051
STK24 (UniProt Q9Y6E0) -0.02
STAT3 (UniProt P40763) 0.026
SPECC1L (UniProt Q69YQ0) -0.005
SPTLC1 (UniProt O15269) 0.015
SRFBP1 (UniProt Q8NEF9) -0.066
STAT5A (UniProt P42229) -0.051
SRSF4 (UniProt Q08170) 0.028
SRP72 (UniProt O76094) 0.108
SRSF7 (UniProt Q16629) 0.044
SSR4 (UniProt P51571) -0.005
SPTBN4 (UniProt Q9H254) -0.04
SPATA5L1 (UniProt Q9BVQ7) 0.035
SPG11 (UniProt Q96JI7) -0.006
STAT6 (UniProt P42226) 0.155
STARD9 (UniProt Q9P2P6) 0.002
SREK1 isoform 2 (UniProt Q8WXA9) 0.005

compound: Cn1cc(-c2ccc3c(c2)CCN3C(=O)Cc2cccc(C(F)(F)F)c2)c2c(N)ncnc21; assay: as above
Outline: as §1

log2 fold change, inactive:
SPAST (UniProt Q9UBP0) 0.099
SPIRE2 (UniProt Q8WWL2) 0.476
SPHK1 isoform 2 (UniProt Q9NYA1) 0.054
SPPL2A (UniProt Q8TCT8) -0.058
SRA1 (UniProt Q9HD15) 0.002
STIM1 (UniProt Q13586) 0.028
SPTBN1 (UniProt Q01082) -0.009
SRSF3 (UniProt P84103) -0.199
SPECC1 (UniProt Q5M775) -0.035
STAG1 (UniProt Q8WVM7) 0.012
SPPL2B (UniProt Q8TCT7) 0.116
SRP54 (UniProt P61011) 0.021
ST3GAL2 (UniProt Q16842) -0.039
SRSF1 (UniProt Q07955) -0.158
STAT1 (UniProt P42224) -0.111
STAT5B (UniProt P51692) 0.07
ST6GALNAC1 (UniProt Q9NSC7) -0.07
STEAP3 isoform 2 (UniProt Q658P3) 0.039
SPRYD4 (UniProt Q8WW59) 0.057
SRGAP2 (UniProt O75044) -0.006
SRPK2 isoform 2 (UniProt P78362) -0.258
SPART (UniProt Q8N0X7) -0.025
STK24 (UniProt Q9Y6E0) 0.053
STAT3 (UniProt P40763) -0.027
SPECC1L (UniProt Q69YQ0) 0.037
SSU72 (UniProt Q9NP77) 0.094
SPTLC1 (UniProt O15269) 0.001
SRFBP1 (UniProt Q8NEF9) -0.163
STAU2 (UniProt Q9NUL3) -0.4
STAT5A (UniProt P42229) 0
SRSF4 (UniProt Q08170) -0.166
SRP72 (UniProt O76094) -0.052
SRSF7 (UniProt Q16629) -0.177
SSR4 (UniProt P51571) 0.067
SPTBN4 (UniProt Q9H254) -0.014
SPATA5L1 (UniProt Q9BVQ7) 0.032
SPG11 (UniProt Q96JI7) -0.051
STAT6 (UniProt P42226) -0.099
STARD9 (UniProt Q9P2P6) 0.076
SREK1 isoform 2 (UniProt Q8WXA9) -0.006
